Laboratory results: PubChem BioAssay AID493246 (Drosophila RNAi Screening Center, 2011)
In all, the deposit lists about 21,000 reagents; below is an unselected part of those with a known target gene and a result. In the full data, 429 (2%) are marked active. 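Values are raw and not normalised between plates; calls rest on per-plate z-scores that were not deposited.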 Reagents against one gene are numbered here. A plus sign joins genes that one reagent is predicted to hit. Not stated in the record: the amount of reagent, the time to read-out.

Purpose: 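Identify essential fly genes by loss of cell viability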 (primary screen)
Cells: Drosophila Kc and S2R+ cells
Reagents: long dsRNA against Drosophila genes
Measured: 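Raw, unnormalised count of remaining cells in each well; per-plate z-scores of cell number underlie the calls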
Scale: Kc cell number and S2R+ cell number: higher = more cells remaining
Active means: 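Counted as a hit if cell number falls by a z-score of at least 3 within its plate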

no.	gene	reagent	Kc cell number, rep 1	Kc cell number, rep 2	S2R+ cell number, rep 1	S2R+ cell number, rep 2	call
1	az2	1	1.31e6	1.39e6	1.02e6	9.19e5	inactive
2	ppk	1	1.62e6	1.64e6	1.26e6	1.45e6	inactive
3	HP1c	1	1.55e6	1.42e6	1.13e6	1.21e6	inactive
4	Had2	1	1.48e6	1.46e6	1.24e6	1.26e6	inactive
5	Srg2 + CG42826	1	1.22e6	1.29e6	1.20e6	1.06e6	inactive
6	Srg2 + CG42826	2	1.42e6	1.82e6	1.35e6	1.38e6	inactive
7	CG2150	1	1.72e6	1.81e6	1.03e6	1.18e6	inactive
8	CG7017	1	1.59e6	1.64e6	1.20e6	1.41e6	inactive
9	Nadk1b	1	1.48e6	1.40e6	9.98e5	1.15e6	inactive
10	Nadk1b	2	1.42e6	1.51e6	1.20e6	1.18e6	inactive
11	Nadk1b	3	1.58e6	1.55e6	1.25e6	1.35e6	inactive
12	salr	1	1.82e6	1.87e6	1.23e6	1.32e6	inactive
13	CG14322	1	1.10e6	1.22e6	9.03e5	8.93e5	inactive
14	PIG-O	1	1.50e6	1.51e6	1.21e6	1.29e6	inactive
15	CG34310	1	1.70e6	1.91e6	1.19e6	1.32e6	inactive
16	CG14480	1	1.50e6	1.56e6	1.23e6	1.29e6	inactive
17	CG12620	1	1.53e6	1.58e6	1.24e6	1.38e6	inactive
18	CG34324	1	1.63e6	1.66e6	1.09e6	1.26e6	inactive
19	Hcs	1	1.43e6	1.58e6	1.10e6	1.23e6	inactive
20	Hcs	2	1.45e6	1.56e6	1.25e6	1.33e6	inactive

Reprinted from the entries so far for reference:
no.	gene	reagent	Kc cell number, rep 1	Kc cell number, rep 2	S2R+ cell number, rep 1	S2R+ cell number, rep 2	call
2	ppk	1	1.62e6	1.64e6	1.26e6	1.45e6	inactive
3	HP1c	1	1.55e6	1.42e6	1.13e6	1.21e6	inactive
4	Had2	1	1.48e6	1.46e6	1.24e6	1.26e6	inactive
5	Srg2 + CG42826	1	1.22e6	1.29e6	1.20e6	1.06e6	inactive
6	Srg2 + CG42826	2	1.42e6	1.82e6	1.35e6	1.38e6	inactive
7	CG2150	1	1.72e6	1.81e6	1.03e6	1.18e6	inactive
8	CG7017	1	1.59e6	1.64e6	1.20e6	1.41e6	inactive
9	Nadk1b	1	1.48e6	1.40e6	9.98e5	1.15e6	inactive
10	Nadk1b	2	1.42e6	1.51e6	1.20e6	1.18e6	inactive
11	Nadk1b	3	1.58e6	1.55e6	1.25e6	1.35e6	inactive

The listing continues.
no.	gene	reagent	Kc cell number, rep 1	Kc cell number, rep 2	S2R+ cell number, rep 1	S2R+ cell number, rep 2	call
21	Dref	1	1.33e6	1.41e6	1.13e6	1.24e6	inactive
22	mRpL43	1	1.53e6	1.46e6	9.36e5	1.12e6	inactive
23	CG13784	1	1.48e6	1.53e6	1.02e6	1.15e6	inactive
24	CG13784	2	1.50e6	1.44e6	4.74e5	7.42e5	inactive
25	CG6724	1	1.51e6	1.59e6	1.07e6	1.23e6	inactive
26	CG12923	1	1.51e6	1.47e6	1.24e6	1.35e6	inactive
27	schlank	1	1.63e6	1.64e6	1.01e6	1.14e6	inactive
28	schlank	2	1.58e6	1.52e6	1.06e6	1.11e6	inactive
29	CG4983	1	1.32e6	1.33e6	1.08e6	1.18e6	inactive
30	CG1307	1	1.60e6	1.54e6	1.36e6	1.45e6	inactive
31	kel	1	1.70e6	1.66e6	1.35e6	1.52e6	inactive
32	Isha	1	1.36e6	1.41e6	9.91e5	1.12e6	inactive
33	Btk	1	1.50e6	1.59e6	1.25e6	1.38e6	inactive
34	Btk	2	1.43e6	1.53e6	5.08e5	7.00e5	inactive
35	IntS11	1	6.04e5		7.86e5		inactive
36	Culd	1	1.28e6	1.43e6	1.30e6	9.21e5	inactive
37	CG9098	1	1.55e6	1.58e6	1.03e6	1.14e6	inactive
38	Acp53Ea	1	1.57e6	1.62e6	1.23e6	1.34e6	inactive
39	Sardh	1	1.39e6	1.49e6	1.09e6	1.11e6	inactive
40	ac	1	1.27e6	1.44e6	7.25e5	8.70e5	inactive
41	ZnT63C	1	1.60e6	1.40e6	1.04e6	1.22e6	inactive
42	ZnT63C	2	1.47e6	1.53e6	9.57e5	1.13e6	inactive
43	ZnT63C	3	1.46e6	1.47e6	1.31e6	1.25e6	inactive
44	CG32547	1	1.63e6	1.91e6	1.16e6	1.26e6	inactive
45	CG32547	2	1.59e6	1.91e6	1.14e6	1.35e6	inactive
46	CG32547	3	1.58e6	1.57e6	1.18e6	1.36e6	inactive
47	CG32547	4	1.55e6	1.61e6	9.99e5	1.12e6	inactive
48	CG5535	1	1.56e6	1.54e6	1.43e6	1.42e6	inactive
49	ImpE2	1	1.32e6	1.39e6	1.11e6	1.10e6	inactive
50	CG7367	1	1.67e6	1.76e6	1.27e6	1.42e6	inactive
51	spel1	1	1.80e6	1.94e6	1.29e6	1.39e6	inactive
52	CG3847	1	1.04e6	1.26e6	1.10e6	1.14e6	inactive
53	CG3847	2	5.36e5		8.88e5		inactive
54	nrv1	1	1.39e6	1.40e6	7.89e5	7.59e5	inactive
55	CG1288	1	1.43e6	1.44e6	1.22e6	1.34e6	inactive
56	Tsp42Eg	1	1.40e6	1.47e6	1.18e6	1.22e6	inactive
57	nom	1	1.45e6	1.58e6	1.27e6	1.30e6	inactive
58	CG31266	1	1.44e6	1.64e6	1.37e6	1.44e6	inactive
59	CG12432 (retired record)	1	1.52e6	1.49e6	1.07e6	1.16e6	inactive
